Reference: US8722929B2, “N-[2-amino-4-(phenylmethoxy)phenyl] amides and related compounds as potassium channel modulators” (Valeant Pharmaceuticals International, priority 2006, dated 2014)
The structures given here were assigned with low confidence; some may be wrong.

The chains behind the UniProt entries cited, without tags or fusion partners.
UniProt O88943, whole entry: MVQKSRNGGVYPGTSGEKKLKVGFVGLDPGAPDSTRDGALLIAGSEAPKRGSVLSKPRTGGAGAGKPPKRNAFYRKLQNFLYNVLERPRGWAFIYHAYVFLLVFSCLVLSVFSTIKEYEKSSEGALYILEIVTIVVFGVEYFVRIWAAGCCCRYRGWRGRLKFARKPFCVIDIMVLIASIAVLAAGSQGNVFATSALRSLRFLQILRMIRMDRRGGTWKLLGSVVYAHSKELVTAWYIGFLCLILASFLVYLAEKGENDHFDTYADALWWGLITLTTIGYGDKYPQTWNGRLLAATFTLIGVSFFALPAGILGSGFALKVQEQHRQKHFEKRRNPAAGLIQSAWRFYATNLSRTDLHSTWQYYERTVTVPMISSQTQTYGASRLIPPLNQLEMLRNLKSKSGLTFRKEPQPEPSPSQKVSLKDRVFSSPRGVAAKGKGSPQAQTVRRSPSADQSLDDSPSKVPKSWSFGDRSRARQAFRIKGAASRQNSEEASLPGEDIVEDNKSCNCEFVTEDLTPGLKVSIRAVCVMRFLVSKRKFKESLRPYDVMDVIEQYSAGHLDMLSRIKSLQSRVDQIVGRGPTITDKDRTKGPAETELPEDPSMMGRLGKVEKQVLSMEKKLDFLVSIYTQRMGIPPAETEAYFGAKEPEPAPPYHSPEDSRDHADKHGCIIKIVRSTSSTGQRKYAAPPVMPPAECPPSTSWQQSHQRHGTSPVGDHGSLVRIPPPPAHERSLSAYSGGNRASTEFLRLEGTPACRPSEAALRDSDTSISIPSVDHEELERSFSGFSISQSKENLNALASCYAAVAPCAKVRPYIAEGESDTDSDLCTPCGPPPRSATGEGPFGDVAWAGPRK
UniProt O88944, whole entry: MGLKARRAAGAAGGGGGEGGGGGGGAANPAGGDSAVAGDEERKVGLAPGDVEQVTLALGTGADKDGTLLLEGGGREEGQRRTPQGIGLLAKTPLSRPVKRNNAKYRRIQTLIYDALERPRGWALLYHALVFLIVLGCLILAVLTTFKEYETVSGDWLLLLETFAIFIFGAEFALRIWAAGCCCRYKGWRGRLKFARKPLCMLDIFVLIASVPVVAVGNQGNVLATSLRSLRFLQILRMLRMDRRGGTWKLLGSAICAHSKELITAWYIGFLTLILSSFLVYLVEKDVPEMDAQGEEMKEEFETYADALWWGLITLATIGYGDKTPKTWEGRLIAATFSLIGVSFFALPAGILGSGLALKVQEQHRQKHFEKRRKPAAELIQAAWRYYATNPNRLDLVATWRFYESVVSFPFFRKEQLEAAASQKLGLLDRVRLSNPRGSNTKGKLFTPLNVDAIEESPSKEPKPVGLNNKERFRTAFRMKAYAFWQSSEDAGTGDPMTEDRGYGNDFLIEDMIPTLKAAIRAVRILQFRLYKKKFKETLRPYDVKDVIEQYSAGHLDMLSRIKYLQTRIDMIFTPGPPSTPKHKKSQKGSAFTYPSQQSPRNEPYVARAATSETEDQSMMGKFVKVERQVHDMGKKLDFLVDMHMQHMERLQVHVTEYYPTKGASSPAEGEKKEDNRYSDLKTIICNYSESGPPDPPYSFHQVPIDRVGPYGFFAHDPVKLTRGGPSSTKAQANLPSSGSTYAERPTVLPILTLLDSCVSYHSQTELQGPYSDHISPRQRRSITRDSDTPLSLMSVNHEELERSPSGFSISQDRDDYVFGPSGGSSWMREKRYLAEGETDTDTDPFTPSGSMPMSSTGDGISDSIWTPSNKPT

Target: KCNQ 2/3 (Rattus norvegicus, UniProt O88943+O88944)
Test: KCNQ 2/3 activator assay by rubidium (Rb+) efflux from NGF-differentiated PC-12 cells
Details: depolarization buffer 15 mM KCl, 10 min, compounds of formula B
Experimental: Compounds of the following formula were assayed as KCNQ 2/3 activators by measuring rhubidium release.
PC-12 cells were grown at 37° C. and 5% CO2 in DMEM/F12 Medium supplemented with 10% horse serum, 5% fetal bovine serum, 2 mM glutamine, 100 U/ml penicillin, 100 U/ml streptomycin. They were plated in poly-D-lysine-coated 96-well cell culture microplates at a density of 40,000 cells/well and differentiated with 100 ng/ml NGF-7s for 2-5 days. For the assay, the medium was aspirated and the cells were washed once with 0.2 ml in wash buffer (25 mM Hepes, pH 7.4, 150 mM NaCl, 1 mM MgCl2, 0.8 mM NaH2PO4, 2 mM CaCl2). The cells were then loaded with 0.2 ml Rb^+ loading buffer (wash buffer plus 5.4 mM […], 5 mM glucose) and incubated at 37° C. for 2 h. […] If collected samples were not immediately analyzed for Rb^+ contents by atomic absorption spectroscopy (see below), they were stored at 4° C. without any negative effects on subsequent Rb^+ analysis.
The concentration of Rb^+ in the supernatants (Rb^+ sup) and cell lysates (Rb^+Lys) was quantified using an ICR8000 flame atomic absorption spectrometer (Aurora Biomed Inc., Vancouver, B.C.) under conditions defined by the manufacturer. […] The amount of Rb^+ in the sample was measured by absorption at 780 nm using a hollow cathode lamp as light source and a PMT detector. […]

**Q.** With `CCOC(=O)Nc1ccc(OCc2ccccc2C(F)(F)F)cc1N` as the compound, how does the EC50 read?
**A.** The EC50 was greater than 30 µM.
